pIC50: −log10 of the molar value. The structures given here were assigned with low confidence; some may be wrong.
These compounds were tested against PDE5 (human platelet) (Homo sapiens, UniProt O76074) (assay: PDE5 (human platelet) inhibition). Conditions: read-out: PDE5 (human platelet) IC50.
Format: biochemical

Compared with `CCOc1ccccc1CNCCn1cnc2c1c(=O)n(C)c(=O)n2CC(C)C`, `CCOc1ccc(C(N)=O)cc1CNCCn1cnc2c1c(=O)n(C)c(=O)n2CC(C)C` is 0.30 log units lower in pIC50: 9.52 for the first, 9.22 for the second.

For `CC(C)Cn1c(=O)n(C)c(=O)c2c1ncn2CCNCc1cc(C(N)=O)ccc1O`, the pIC50 was 9.22.

— patent US7550468B2, “Theophylline and 3-isobutyl-1 methylxanthine based N-7 substituted derivatives displaying inhibitory activities on PDE-5 phospodiesterase” (priority 2000, dated 2009)
